Some entries share one result that the patent states for a list of compounds. For at least one compound, name, drawing or mass did not settle the structure.
Assays:
[1] = Fluorescence titration with NaHS, Bindfit 1:1 analysis and LoD, pH 7.4 10 mM aqueous HEPES buffer; type: binding; conditions: 10 μM receptors in 10 mM aqueous HEPES buffer
Experimental: Fluorescence titration experiments were performed using a Horiba Duetta at 293 K. The host molecules (XB1-3, and HB1-3) were dissolved in 10 mM HEPES aqueous buffer solution at pH 7.4 at a concentration of 10 μM. Na salts of the appropriate anion were dissolved in the solution of the host molecule to obtain a concentration. Aliquots of the anion solution were added to 1.00 mL of the host solution in a quartz cuvette, where the sample was then thoroughly mixed before fluorescence spectra were recorded. Association constants were obtained by global analysis using BindFit, using a host-guest 1:1 binding model.
The anion sensing properties were investigated in pH 7.4 aqueous HEPES buffer solution using fluorescence spectroscopy. At this pH value the protonated forms XB3H^+ and HB3H^+ are the dominant receptor species present in the aqueous solution. The amine pKa of XB3 (10.29) and HB3 (9.98) were experimentally determined by monitoring changes in fluorescence with pH. (FIG. 16).
The fluorescence emission, following excitation at 342 nm, was monitored upon the addition of sodium hydrosulfide and halide salts. […]
Bindfit analysis^23,24 of the titration data for XB and HB receptors was used to determine 1:1 host: guest stoichiometric anion association constants, as shown below in Table 1.

[2] = Reversibility studies: removal of HS^− using Zn(OTf)2; conditions: 5 equivalents of NaHS and Zn(OTf)2, two cycles

Compound | LoD, Limit of Detection for HS− [1] | reversibility of HS^− quenching upon addition of Zn(OTf)2 [2]
COCCOCCOCCOc1cc(COc2ccc3cc(-n4nnc(CNCc5nnn(-c6cc7ccc(OCc8cc(OCCOCCOCCOC)c(OCCOCCOCCOC)c(OCCOCCOCCOC)c8)cc7oc6=O)c5I)c4I)c(=O)oc3c2)cc(OCCOCCOCCOC)c1OCCOCCOCCOC [XB3] | low micromolar range | fluorescence returned to near non-quenched emissions
COCCOCCOCCOc1cc(COc2ccc3cc(-n4nnc(-c5cc(-c6nnn(-c7cc8ccc(OCc9cc(OCCOCCOCCOC)c(OCCOCCOCCOC)c(OCCOCCOCCOC)c9)cc8oc7=O)c6I)c[n+](C)c5)c4I)c(=O)oc3c2)cc(OCCOCCOCCOC)c1OCCOCCOCCOC.O=S(=O)([O-])C(F)(F)F [XB2] |  | fluorescence returned to near non-quenched emissions
COCCOCCOCCOc1cc(COc2ccc3cc(-n4nnc(-c5cncc(-c6nnn(-c7cc8ccc(OCc9cc(OCCOCCOCCOC)c(OCCOCCOCCOC)c(OCCOCCOCCOC)c9)cc8oc7=O)c6I)c5)c4I)c(=O)oc3c2)cc(OCCOCCOCCOC)c1OCCOCCOCCOC [XB1] |  | fluorescence returned to near non-quenched emissions

Source: patent US20250164397A1, “SULPHIDE SENSOR” (Oxford University Innovation Limited, priority 2021, published 2025)
